Record: PubChem BioAssay AID743454 (Peter MacCallum Cancer Centre, 2014)
Assay: 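Genes whose loss kills vorinostat-resistant colon cancer cells under vorinostat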 (primary screen). System: human HCT116-VR colon cancer cells, selected for vorinostat resistance. Knock-down reagent: siRNA pool against human genes, 40 nM siRNA pool. Duration: vorinostat for 24 h, read-out about 72 h after transfection. Conditions: vorinostat at 2.5 µM final. Measured: 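Two measures, CellTiter-Fluor viability and luminescent caspase 3/7 activity, each as fold change against same-plate mock wells, mean of duplicates, then screen-wide robust z-score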. Scale: viability robust z-score: higher = more viable cells than screen typical; caspase robust z-score: higher = more caspase 3/7 activity than screen typical. Rule for the call: 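Hits are knock-downs in viability class RV1/RV2 or caspase class CA1/CA2, excluding ones that killed cells in the no-drug cell-count arm; hits then retested with single siRNAs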.
The deposit covers about 18,000 reagents; below is an unselected part. 450 of them (2.5%) count as active. 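Single biological run; no consistent viability z cut-off exists, so the class columns, not z-scores, define the calls.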 No sequences are given here.

The first 7 entries as a preview:
| gene | viability hit class | caspase hit class | viability robust z-score | caspase robust z-score | call |
| --- | --- | --- | --- | --- | --- |
| PLEKHA8 (GeneID 84725) | no change | no change | -0.97 | -0.9 | inactive |
| XRCC3 (GeneID 7517) | no change | no change | -1.12 | 2.24 | inactive |
| SACK1F (GeneID 113828) | no change | no change | 1.04 | 1.6 | inactive |
| ARID5B (GeneID 84159) | no change | no change | -0.34 | -0.83 | inactive |
| APH1B (GeneID 83464) | no change | no change | -0.16 | 0.31 | inactive |
| OTUD5 (GeneID 55593) | no change | no change | -1.04 | 1.86 | inactive |
| TGM3 (GeneID 7053) | no change | no change | -0.08 | -0.47 | inactive |

The listing, repeating the preview:
| gene | viability hit class | caspase hit class | viability robust z-score | caspase robust z-score | call |
| --- | --- | --- | --- | --- | --- |
| PLEKHA8 (GeneID 84725) | no change | no change | -0.97 | -0.9 | inactive |
| XRCC3 (GeneID 7517) | no change | no change | -1.12 | 2.24 | inactive |
| SACK1F (GeneID 113828) | no change | no change | 1.04 | 1.6 | inactive |
| ARID5B (GeneID 84159) | no change | no change | -0.34 | -0.83 | inactive |
| APH1B (GeneID 83464) | no change | no change | -0.16 | 0.31 | inactive |
| OTUD5 (GeneID 55593) | no change | no change | -1.04 | 1.86 | inactive |
| TGM3 (GeneID 7053) | no change | no change | -0.08 | -0.47 | inactive |
| MAGEA3 (GeneID 4102) | no change | no change | 0.52 | -0.16 | inactive |
| SCIN (GeneID 85477) | no change | no change | -0.1 | 0.38 | inactive |
| RPS3A (GeneID 6189) | no change | no change | -4.62 | -1.98 | inactive |
| ERAS (GeneID 3266) | no change | no change | -0.14 | -0.52 | inactive |
| C2CD2 (GeneID 25966) | no change | no change | 0.87 | 1.52 | inactive |
| CD300LB (GeneID 124599) | no change | no change | 1.45 | 1.25 | inactive |
| ITGB3 (GeneID 3690) | no change | no change | -1.22 | 2.43 | inactive |
| ARGFX (GeneID 503582) | no change | no change | 0.34 | 0.54 | inactive |
| ZNF687 (GeneID 57592) | no change | no change | -0.01 | 0.17 | inactive |
| GINS1 (GeneID 9837) | no change | no change | 0.45 | -1.11 | inactive |
| MAP3K1 (GeneID 4214) | no change | no change | -0.78 | -0.87 | inactive |
| C4orf33 (GeneID 132321) | no change | no change | -0.95 | -0.13 | inactive |
| TRPC6 (GeneID 7225) | no change | no change | -0.2 | 1.68 | inactive |
| CRACDL (GeneID 343990) | no change | no change | -0.34 | -0.46 | inactive |
| MIA (GeneID 8190) | no change | no change | -0.24 | 0.54 | inactive |
| NOTCH1 (GeneID 4851) | no change | no change | 0.8 | 0.46 | inactive |
| FBXL4 (GeneID 26235) | no change | no change | -1.29 | -1.38 | inactive |
| CASD1 (GeneID 64921) | no change | no change | 0.06 | 1.68 | inactive |
| GPRIN2 (GeneID 9721) | no change | no change | -0.1 | 0.66 | inactive |
| ATP9B (GeneID 374868) | no change | no change | 0.28 | -0.68 | inactive |
| CDK5R2 (GeneID 8941) | no change | no change | -0.54 | -0.97 | inactive |
| POPDC3 (GeneID 64208) | no change | no change | 0.4 | -0.92 | inactive |
| CLEC2B (GeneID 9976) | no change | no change | 0.34 | -0.84 | inactive |
| TAF5 (GeneID 6877) | no change | no change | -1.82 | 0.12 | inactive |
| UNC13B (GeneID 10497) | no change | no change | -0.8 | 1.21 | inactive |
| IL25 (GeneID 64806) | no change | no change | 0.7 | 2.17 | inactive |
| HEBP1 (GeneID 50865) | no change | no change | 0.48 | -1.06 | inactive |
| PTPRM (GeneID 5797) | no change | no change | -1.02 | -0.2 | inactive |
| ZBTB32 (GeneID 27033) | no change | no change | -0.04 | 0.76 | inactive |
| TIA1 (GeneID 7072) | no change | no change | 0.43 | -1.13 | inactive |
| RNGTT (GeneID 8732) | no change | no change | -0.49 | -0.88 | inactive |
| LOC652591 (retired record) (GeneID 652591) | no change | no change | -0.62 | 0.46 | inactive |
| BMPR1B (GeneID 658) | no change | no change | -0.21 | -0.57 | inactive |
| SLC4A2 (GeneID 6522) | no change | no change | -0.43 | -0.64 | inactive |
| DDX10 (GeneID 1662) | no change | no change | -0.48 | -0.9 | inactive |
| SLC2A5 (GeneID 6518) | no change | no change | 0.08 | 1.85 | inactive |
| VAV1 (GeneID 7409) | no change | no change | 0.22 | -0.9 | inactive |
| CDKL3 (GeneID 51265) | no change | no change | -0.05 | -0.21 | inactive |
| DBF4B (GeneID 80174) | no change | no change | 0.06 | 0.19 | inactive |
| RAP1GAP2 (GeneID 23108) | no change | no change | 0.77 | -0.65 | inactive |
| RDM1 (GeneID 201299) | no change | no change | 0.48 | 0.3 | inactive |
| UQCRB (GeneID 7381) | no change | no change | 0.92 | -0.97 | inactive |
| LRRC71 (GeneID 149499) | no change | no change | -1.6 | 0.62 | inactive |
| NLRP14 (GeneID 338323) | no change | no change | 0.47 | -0.52 | inactive |
| LCE1C (GeneID 353133) | no change | no change | -0.11 | 1.24 | inactive |
| WASHC2A (GeneID 387680) | no change | no change | -0.52 | -0.94 | inactive |
| FGFBP1 (GeneID 9982) | no change | no change | 0.34 | 0.29 | inactive |
| PHF11 (GeneID 51131) | no change | no change | 0.32 | 0.01 | inactive |
| RHOU (GeneID 58480) | no change | no change | 1.79 | -0.18 | inactive |
| REXO2 (GeneID 25996) | no change | no change | 0.09 | -0.73 | inactive |
